## Screening data, single-dose tests

Sequences of proteins named here, by UniProt entry; tags and fusion partners are left off.
UniProt P9WFT3, whole entry: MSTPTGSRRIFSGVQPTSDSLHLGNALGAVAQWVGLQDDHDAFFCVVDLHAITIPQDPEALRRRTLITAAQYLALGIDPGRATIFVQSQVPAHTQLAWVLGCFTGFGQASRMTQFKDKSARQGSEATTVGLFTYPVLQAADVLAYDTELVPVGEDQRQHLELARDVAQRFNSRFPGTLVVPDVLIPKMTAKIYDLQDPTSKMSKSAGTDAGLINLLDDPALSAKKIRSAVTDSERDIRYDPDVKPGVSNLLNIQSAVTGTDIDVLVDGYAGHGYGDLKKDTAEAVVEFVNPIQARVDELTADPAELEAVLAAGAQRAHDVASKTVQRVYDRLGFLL
UniProt P9WPC5, whole entry: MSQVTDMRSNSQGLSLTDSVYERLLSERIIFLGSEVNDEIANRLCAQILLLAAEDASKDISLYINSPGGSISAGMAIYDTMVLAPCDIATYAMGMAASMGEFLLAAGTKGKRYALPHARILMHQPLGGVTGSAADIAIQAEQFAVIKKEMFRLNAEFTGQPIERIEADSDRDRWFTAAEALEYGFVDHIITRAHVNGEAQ
UniProt P9WPC3, whole entry partner: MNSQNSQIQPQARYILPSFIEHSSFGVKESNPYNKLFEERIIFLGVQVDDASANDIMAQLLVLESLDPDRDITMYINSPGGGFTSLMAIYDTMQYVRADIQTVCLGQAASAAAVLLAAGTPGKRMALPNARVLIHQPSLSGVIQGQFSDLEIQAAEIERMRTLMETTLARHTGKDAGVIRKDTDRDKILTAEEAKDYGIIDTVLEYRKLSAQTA
UniProt P9WNZ1, whole entry: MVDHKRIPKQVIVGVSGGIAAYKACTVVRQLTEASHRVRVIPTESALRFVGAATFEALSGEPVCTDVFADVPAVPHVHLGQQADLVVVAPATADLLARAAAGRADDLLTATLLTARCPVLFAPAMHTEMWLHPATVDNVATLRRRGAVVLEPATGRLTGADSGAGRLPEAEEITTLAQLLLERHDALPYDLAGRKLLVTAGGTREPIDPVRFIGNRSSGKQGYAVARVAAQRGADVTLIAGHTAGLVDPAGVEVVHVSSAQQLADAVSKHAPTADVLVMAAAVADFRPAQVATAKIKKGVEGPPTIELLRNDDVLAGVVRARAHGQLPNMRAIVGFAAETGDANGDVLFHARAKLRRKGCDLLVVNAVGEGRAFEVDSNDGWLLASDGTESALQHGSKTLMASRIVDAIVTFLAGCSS
UniProt I6X8D2, whole entry: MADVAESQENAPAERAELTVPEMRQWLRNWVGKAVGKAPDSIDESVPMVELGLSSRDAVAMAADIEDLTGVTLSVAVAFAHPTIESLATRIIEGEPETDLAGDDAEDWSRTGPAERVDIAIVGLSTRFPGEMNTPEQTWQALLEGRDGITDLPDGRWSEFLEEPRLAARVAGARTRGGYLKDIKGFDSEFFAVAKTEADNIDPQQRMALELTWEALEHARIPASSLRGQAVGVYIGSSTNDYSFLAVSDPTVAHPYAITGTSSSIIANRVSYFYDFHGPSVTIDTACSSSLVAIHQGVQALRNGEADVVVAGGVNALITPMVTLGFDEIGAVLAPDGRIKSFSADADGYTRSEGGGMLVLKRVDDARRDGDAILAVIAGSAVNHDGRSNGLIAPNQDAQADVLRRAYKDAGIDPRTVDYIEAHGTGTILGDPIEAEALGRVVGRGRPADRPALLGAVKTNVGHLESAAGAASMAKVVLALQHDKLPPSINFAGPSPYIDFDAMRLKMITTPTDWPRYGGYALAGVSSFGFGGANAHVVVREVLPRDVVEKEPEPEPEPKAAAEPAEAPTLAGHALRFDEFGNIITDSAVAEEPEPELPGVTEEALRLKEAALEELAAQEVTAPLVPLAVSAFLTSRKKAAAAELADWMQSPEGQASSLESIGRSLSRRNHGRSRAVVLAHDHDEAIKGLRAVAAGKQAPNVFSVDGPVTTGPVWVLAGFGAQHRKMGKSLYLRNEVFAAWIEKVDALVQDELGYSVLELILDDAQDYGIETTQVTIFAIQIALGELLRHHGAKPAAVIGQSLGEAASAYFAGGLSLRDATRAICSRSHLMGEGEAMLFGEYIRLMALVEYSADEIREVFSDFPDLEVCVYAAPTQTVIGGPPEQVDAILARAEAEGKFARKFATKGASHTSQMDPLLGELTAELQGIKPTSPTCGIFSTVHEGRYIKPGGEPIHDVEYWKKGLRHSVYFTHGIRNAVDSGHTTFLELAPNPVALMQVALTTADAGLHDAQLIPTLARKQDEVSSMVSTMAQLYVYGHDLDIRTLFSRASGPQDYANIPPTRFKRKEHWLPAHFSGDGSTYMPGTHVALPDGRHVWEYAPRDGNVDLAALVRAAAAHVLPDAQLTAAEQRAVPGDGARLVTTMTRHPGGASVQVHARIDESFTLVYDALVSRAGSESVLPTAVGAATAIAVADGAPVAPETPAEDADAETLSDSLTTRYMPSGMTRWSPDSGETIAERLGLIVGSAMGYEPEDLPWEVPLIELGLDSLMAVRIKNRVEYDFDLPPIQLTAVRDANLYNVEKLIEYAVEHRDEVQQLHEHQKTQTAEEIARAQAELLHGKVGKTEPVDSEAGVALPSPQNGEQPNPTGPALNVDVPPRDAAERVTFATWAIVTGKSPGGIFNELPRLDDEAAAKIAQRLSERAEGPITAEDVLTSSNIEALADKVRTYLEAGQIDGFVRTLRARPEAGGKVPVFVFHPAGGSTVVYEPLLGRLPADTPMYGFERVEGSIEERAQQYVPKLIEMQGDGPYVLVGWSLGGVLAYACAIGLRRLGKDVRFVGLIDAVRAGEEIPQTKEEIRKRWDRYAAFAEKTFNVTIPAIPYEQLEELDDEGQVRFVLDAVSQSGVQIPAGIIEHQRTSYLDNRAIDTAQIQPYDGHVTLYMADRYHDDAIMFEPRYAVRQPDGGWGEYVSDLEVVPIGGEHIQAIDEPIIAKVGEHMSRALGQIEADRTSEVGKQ

From ChEMBL document CHEMBL3988442, “University of Dundee, Small-Polar-MMV Screening Library” (2021).

MtTrpRS: 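Enzyme assay of tryptophanyl-tRNA synthetase; the read-out is not stated. Target: Tryptophan-tRNA ligase, Mycobacterium tuberculosis (UniProt P9WFT3). Concentration: 10 µM. Higher most likely means stronger inhibition; the record gives no direction and few retests gave an IC50. Of about 65,000 compounds tested this way, about 64 (0.098%) reached 50% or more in at least one test.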
Toxoplasma: 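Assay of Toxoplasma gondii numbers, read through their beta-galactosidase reporter with a colour substrate. Tested at 10 µM. Higher reads as fewer parasites (inferred from which compounds were picked for retests). Size under these conditions: about 67,000 compounds, about 260 of them at 50% or above in at least one test.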
ClpP1P2: 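ClpP1P2, Mycobacterium tuberculosis (UniProt P9WPC5 and UniProt P9WPC3). Protease assay of ClpP1P2, read by the AMC dye that it sets free. Compounds at 50 µM. Higher reads as stronger inhibition, judged from the few compounds that gave an IC50. Most other retested compounds had strongly negative values. Of about 69,000 compounds tested this way, about 10 (0.015%) reached 50% or more in at least one test.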
CoaBC: 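Coenzyme A biosynthesis protein CoaBC, Mycobacterium tuberculosis (UniProt P9WNZ1). Enzyme assay of CoaBC with a phosphate dye (Biomol Green) read at 650 nm. Compounds at 30 µM. Higher reads as stronger inhibition, judged from the few compounds that gave an IC50. Most strong results did not repeat in a second test. Of about 67,000 compounds tested this way, about 40 (0.06%) reached 50% or more in at least one test.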
Pks13 thioesterase: 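Polyketide synthase Pks13, Mycobacterium tuberculosis (UniProt I6X8D2). Enzyme assay of the thioesterase domain of polyketide synthase 13; the read-out is not stated. Concentration: 30 µM. Higher reads as stronger inhibition (inferred from which compounds were picked for retests). About 67,000 compounds were tested under these conditions; 0.46% (about 300) showed 50% or more at least once.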

Results are given as percent effect. The record does not define 0% and 100%; most values in the screen are far below 50% and negative numbers occur (in some assays of this library far below -100). Compounds were drawn at random from those tested, without regard to their results. A dash means the value is not listed here; it may have been measured.

Compound,MtTrpRS,Toxoplasma,ClpP1P2,CoaBC,Pks13 thioesterase
O=C(O)[C@@H]1CN(CC2CCC2)C[C@H]1c1ccc(F)cc1,0.5415,-6.492,-6.884,10.86,-8.354
CCc1ccc(NC(=O)C(C)N2CCN(Cc3ncc[nH]3)CC2)cc1 (centres unmarked),4.751,-5.628,-5.271,-2.163,-4.223
CC(C)c1nnc(CN2CCc3ccc(S(N)(=O)=O)cc32)o1,-0.3068,2.639,-8.778,-6.242,-
CN(C)CCN1CCO[C@@H]2CN(C(=O)c3cccs3)CC[C@@H]2C1,0.6103,-,-1.885,5.913,-31.22
Cc1ccc(Oc2nccnc2C2CCN(C(=O)C(C)(C)N)CC2)cc1,-,5.602,-4.18,3.883,10.05
CCC1=NN2C(=N)/C(=C/c3cccc(Cl)c3)C(=O)N=C2S1,-1.487,-10.99,-10.09,3.666,-110.6
CCC(C)(NCC(=O)Nc1ccccc1)c1nc(C)cs1 (centres unmarked),-3.521,-1.01,-6.328,8.811,-19.19
Cc1ccc2nc(-c3nc4c([nH]3)CCCNC4=O)cn2c1,-0.9213,-15.7,-2.5,4.883,-0.6478
CCOC(=O)C1CN(S(=O)(=O)C2CC2)Cc2ncn(CC)c21 (centres unmarked),18.3,3.706,1.161,-5.123,-3.53
O=C(c1ccc[nH]1)N1C[C@H]2CC[C@@H]1CN(c1ncccn1)C2,2.071,-,-4.386,-8.636,-19.77
Cc1cnc(N2C[C@H]3C[C@H](C(=O)N4CCN(C)CC4)N(C)[C@H]3C2)nc1,-7.273,-,4.859,0.4831,-4.164
CCn1cc(-c2cc(C(F)(F)F)n(CCCN)n2)cn1,-,19.77,1.61,0.8589,2.785
COc1ccc(CNC(=O)c2nn(C)c3c2CS(=O)(=O)CC3)cc1,1.554,-1.549,-4.211,-0.9238,-4.396
OCC(CO)N1CCCC(Cc2cnc(Nc3ccccn3)cn2)C1 (centres unmarked),-9.675,6.223,-6.742,-6.045,21.66
CN(Cc1cccnc1N)Cc1cccc2ncccc12,-5.012,-11.39,11.89,-0.2469,-35.95
O=C(NCCc1ccc2c(c1)OCO2)C1CCCN(Cc2ccco2)C1 (centres unmarked),9.297,4.137,-5.417,-2.571,-37.13
CCC1c2ccc(C)n2CCN1C(=O)Cn1cnc2sc(C)cc2c1=O (centres unmarked),-4.485,19.4,-21.63,-41.43,37.97
O=C(O)C(F)(F)F.[H][C@]12CCN(c3ncccn3)[C@@]1([H])CC[C@@H](COCC(=O)N(C)C)O2,-,6.316,-,-,-
NC(=O)C1CN(C(=O)Cc2cccnc2)CCN(C2CCOCC2)C1 (centres unmarked),-,-19.21,9.844,0.7264,-11.26
CN(C(=O)c1cccc2[nH]ncc12)C1CCN(c2ccccn2)CC1,-3.049,2.304,5.083,2.051,-22.26
Cc1n[nH]c(C)c1CNc1ccc(-c2nc(C3CC3)no2)cn1,1.232,-3.728,-7.836,4.545,3.882
Cc1noc(C)c1CS(=O)(=O)C(C)C(=O)N(C)c1ccccc1 (centres unmarked),1.285,-2.429,-10.21,3.457,5.296
Cc1nnc(CN(Cc2ccc(Cl)c(Cl)c2)C2CC2)o1,-5.747,-5.61,-14.72,1.653,14.73
Cc1cccc(C2(CNC(C)c3nnc(C)o3)CCCC2)c1 (centres unmarked),-4.388,8.582,-6.722,-6.2,-1.72
CCCn1cnnc1CNC1CCSC1 (centres unmarked),0.6369,3.335,2.006,7.631,-22.04
COc1ccc(C)cc1-n1ccc(C(=O)NCC2CCCOC2)n1 (centres unmarked),11.19,13.74,-3.889,2.067,-12.06
CC(C)CN1C(=O)CO[C@@H]2CNC[C@H]21,-2.698,-,3.26,2.709,0.2376
CC(C)COC(C)C(=O)NCc1ccccc1 (centres unmarked),1.129,6.178,-19.12,2.089,-15.26
CCN(CC1CCOC1)C(=O)NCc1ccc(-n2cncn2)nc1 (centres unmarked),-1.784,4.734,4.113,10.91,-23.42
O=C(O)C(F)(F)F.[H][C@@]12C[C@H](C(=O)Nc3ccccc3)[C@@]([H])(CN(CC)C1)O2,-,9.707,-,-,-
CN1CCN2C[C@@H](NC(=O)c3nc4ccccc4[nH]3)C[C@H]2C1,-1.933,-,-4.624,7.727,-46.6
CSc1ccc(-c2nc(CN3CCC(CN)C3)c(C)o2)cc1 (centres unmarked),0.6595,13.8,-6.466,-39.79,-6.287
CC(=O)N1CCCC(Cc2cnc(-n3ccnc3)cn2)C1 (centres unmarked),-4,1.326,3.421,0.7299,-10.12
CCn1c(C2CCNCC2)nn(Cc2ccc(C(=O)NC)o2)c1=O,7.351,-2.615,24.62,-1.607,-8.476
O=C(O)C(F)(F)F.[H][C@@]12COC[C@]1(COC)CN(Cc1ccc3c(c1)OCO3)C2,-,2.655,-,-,-
O=C(O)C(F)(F)F.[H][C@@]12CN(c3cc(OC)ncn3)CCC[C@]1(C(=O)O)CN(C(C)C)C2,-,1.919,-,-,-
Cn1nc(-c2ccccc2)c(Cl)c1C(=O)O,-11.13,-25.7,-11.94,2.525,-39.62
C[C@@H]1CN(C(=O)CCc2nncn2C)CC[C@@]1(O)C1CCC1,-1.639,8.07,-6.343,-11.49,-20.34
COCCNS(=O)(=O)c1ccc2c(c1)CCN(C(=O)c1cncn1C)C2,-1.137,4.943,9.621,-0.8439,-8.92
CC(C)N1[C@@H](C(=O)NCCN(C)C)C[C@H]2CN(c3ncccn3)C[C@H]21,5.771,-,8.904,-7.536,-17.98
Cc1cc(C2CCC2)nc(N(C)Cc2ncccc2C)n1,1.32,36.56,5.278,-3.297,0.06601
Cc1cc(C)n(CC(C)CNC(=O)CCc2ccco2)n1 (centres unmarked),-2.601,8.926,4.381,3.913,-40.55
CC(C)(C)c1ncc(CNCC2CCCn3ccnc32)s1 (centres unmarked),-2.599,24.38,-4.702,-4.032,-
Cc1cc(C)n(CCC(=O)N2CCCC(c3cc(C(N)=O)[nH]n3)C2)n1 (centres unmarked),15.68,-31.59,-15.23,9.43,-20.64
Cc1noc(CCCC(=O)Nc2ncccc2Br)n1,-3.008,-17.49,-6.328,10.02,5.133
COCCN1CC2(CCCN(c3ncnc4[nH]cnc34)C2)CCC1=O (centres unmarked),3.333,-2.7,-0.4086,2.451,-19.53
O=C(c1cnc(NCCC2CCCO2)c(Cl)c1)N1CCOCC1 (centres unmarked),2.114,0.04026,-11.92,2.445,-1.321
O=C(Cc1ccccn1)N1CCN(C(=O)CC2CCCCC2)CC1,-4.263,-2.544,-20.37,4.439,-4.857
O=C(c1ccncc1F)N1CC[C@@H]2CN(c3ncccn3)CCO[C@@H]2C1,-6.099,-,-0.5718,-1.25,-10.41
CNC(=O)COc1ccc(CNCc2cc(F)ccc2F)cc1,-1.146,-11.62,-23.6,4.847,-26.95
CCS(=O)(=O)N1CCC[C@]2(C(=O)N(C)C)CN(c3ncccn3)C[C@@H]2C1,-1.784,-,5.412,-0.8883,-3.641
Cc1noc([C@@H]2C[C@@H]3CCN(CC4CCOCC4)C[C@H]3O2)n1,-10.84,-,-9.349,10.68,-28.15
Cc1cccc(CN2CC3(CCN(C4CCOC4)CC3)OCC2=O)n1.O=C(O)C(F)(F)F.O=C(O)C(F)(F)F (centres unmarked),-,17.38,-,-,-
CN(CCCc1ccccc1)Cc1nc2c(cnn2C)c(=O)[nH]1,-0.8607,2.24,-3.678,-0.3559,-6.488
Cn1ccc2cc(C(=O)N3CC[C@@]4(O)CCCC[C@H]4C3)ccc21,-1.471,-,1.316,3.535,-11.97

Repeated from the top, 5 entries:

Compound	MtTrpRS	Toxoplasma	ClpP1P2	CoaBC	Pks13 thioesterase
O=C(O)[C@@H]1CN(CC2CCC2)C[C@H]1c1ccc(F)cc1	0.5415	-6.492	-6.884	10.86	-8.354
CCc1ccc(NC(=O)C(C)N2CCN(Cc3ncc[nH]3)CC2)cc1 (centres unmarked)	4.751	-5.628	-5.271	-2.163	-4.223
CC(C)c1nnc(CN2CCc3ccc(S(N)(=O)=O)cc32)o1	-0.3068	2.639	-8.778	-6.242	-
CN(C)CCN1CCO[C@@H]2CN(C(=O)c3cccs3)CC[C@@H]2C1	0.6103	-	-1.885	5.913	-31.22
Cc1ccc(Oc2nccnc2C2CCN(C(=O)C(C)(C)N)CC2)cc1	-	5.602	-4.18	3.883	10.05